Laboratory results as given in PubChem BioAssay AID493014 (National Center for Advancing Translational Sciences (NCATS), 2011).
The other results are listed elsewhere or left out. These are further read-outs of the screen, such as a control signal, another cell line or another target. No call is given for them. Most of these compounds were active or inconclusive in the main read-out, so they are no random draw. The note in brackets gives the kind of curve behind each potency; many fits are weak.

Test: qHTS Assay to Find Inhibitors of Chronic Active B-Cell Receptor Signaling
Conditions: ABC-DLBCL IkBa-CBG/CBR reporter, luminescence ratio (green luciferase fused to IkBa over red control in TMD8 lymphoma cells), 4 h
In short: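 Doxycycline induced both beetle luciferases in TMD8 lymphoma cells; IKK-driven degradation limits the IkappaBalpha-fused green signal, while red luminescence normalises for cell number and nonspecific effects. Compounds tested up to 46 uM, 4 hrs.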

[1] = measured here: CBR red luminescence, cell number
[2] = measured here: IkBa-CBG green luminescence

SMILES	AC50 [1]	AC50 [2]
Cc1cc(OCC(=O)O/N=C(\N)c2ccccc2)ccc1Cl	0.058 µM [rising, full curve, poor fit]	–
O=C(c1ccccc1)N1N=C(c2ccccc2)CC1c1ccccc1O (stereo not drawn)	20 µM [falling, partial curve, poor fit]	–
Cc1cccc(C(=O)NC(=S)N2CCN(C)CC2)c1	14.1 µM [rising, single point]	–
O=C(c1cn(-c2ccccc2)nc1-c1cccc([N+](=O)[O-])c1)N1CCCCC1	3.55 µM [rising, single point]	–
O=C(Nc1nnc(S(=O)(=O)N2CCCCCC2)s1)c1ccccc1F	0.562 µM [rising, full curve, poor fit]	–
CCOc1ccc(NC(=O)CN2CCN(CC(=O)Nc3ccccc3OC)CC2)cc1	12.6 µM [falling, partial curve, poor fit]	–
COc1cccc(NC(=O)CN(C)C(=O)c2ccc(S(=O)(=O)Nc3ccccc3C)cc2)c1	29.1 µM [rising, single point]	–
Cc1ccccc1-n1c(=O)n(Cc2ccco2)c(=O)c2[nH]cnc21	20 µM [rising, partial curve, poor fit]	14.1 µM [falling, partial curve, poor fit]
COC(=O)c1cccc(NC(=O)c2ccc3c(c2)C(=O)N(Cc2cccnc2)C3=O)c1C	7.08 µM [falling, partial curve]	–
COc1ccc(C2=C(Nc3ccc(C)cc3)c3ccccc3C2=O)cc1	1.64 µM [rising, full curve, poor fit]	–
COc1cccc(OC)c1C(=O)OCC(=O)N1CCC(Cc2ccccc2)CC1	29.1 µM [rising, single point]	–
Nc1c(C(=O)Nc2nccs2)sc2nc(-c3cccs3)cc(C(F)(F)F)c12	3.26 µM [falling, partial curve, poor fit]	–
COc1cccc(C(=O)Nc2ccc(NC(=O)C3CCCCC3C(=O)O)cc2)c1 (stereo not drawn)	20 µM [falling, single point]	–
O=C(N/N=C\c1ccc(-c2ccc(Cl)c(Cl)c2)o1)C(=O)N1CCCC1	35.5 µM [falling, single point]	–
Cc1ccc(-n2c(SCC(=O)OC(C)C)nnc2-c2ccncc2)cc1	29.1 µM [falling, single point]	–
O=C(/C=C/c1cccs1)Nc1sc2c(c1C(=O)O)CCCC2	0.794 µM [falling, full curve]	–
O=C(N/N=C(\Cc1ncc[nH]1)c1ccccc1)c1cccnc1	8.91 µM [falling, partial curve, poor fit]	–
CCCOc1ccc(C2c3c(oc4ccccc4c3=O)C(=O)N2CCCN2CCOCC2)cc1 (stereo not drawn)	2.31 µM [rising, partial curve, poor fit]	–
CC(C(=O)Nc1ccccc1-c1ccccc1)N(C)Cc1nc2ccccc2c(=O)[nH]1 (stereo not drawn)	0.794 µM [rising, full curve, poor fit]	–
NNc1nc(-c2ccccc2)c2ccccc2n1	6.31 µM [falling, partial curve]	12.6 µM [rising, partial curve, poor fit]

SMILES	AC50 [1]	AC50 [2]
O=C(CCCN1C(=O)S/C(=C\C=C\c2ccccc2)C1=O)Nc1ccc(C(=O)O)cc1	1.12 µM [falling, full curve]	–
O=C(Cc1ccc(Cl)cc1)Nc1cccc(C(=O)Nc2ccccc2C(=O)O)c1	22.4 µM [falling, single point]	–
Cc1ccc(OCC(=O)NC2CCCC(C)C2C)c([N+](=O)[O-])n1 (stereo not drawn)	2.31 µM [rising, full curve, poor fit]	–
CCc1c(C)nc2[nH]nc(-c3ccccc3C)n2c1=O	8.2 µM [falling, partial curve]	–
COc1cc(/C=N/NC(=O)c2ccc(F)cc2)ccc1OC(=O)c1ccco1	25.9 µM [falling, partial curve, poor fit]	–
O=C(Nc1ncccc1O)c1cc2ccccc2o1	4.11 µM [falling, full curve]	8.2 µM [falling, partial curve, poor fit]
CCOC(=O)C1=C(COC(=O)/C=C/c2ccc([N+](=O)[O-])cc2)NC(=O)NC1C (stereo not drawn)	2.59 µM [falling, single point]	–
O=C(N/N=C/c1ccccc1Cl)c1n[nH]c2c1CCCC2	0.58 µM [falling, full curve]	–
Fc1ccc(N=C2NN=C(c3cc(F)ccc3F)CS2)cc1	16.4 µM [falling, partial curve, poor fit]	–
C=C(C)Cn1c(SCC(=O)NCc2ccco2)nc2sc3c(c2c1=O)CCC3	12.6 µM [falling, single point]	–
CC1=C(C)CC(C(=O)NNC(=O)c2ccccc2)C(C(=O)O)C1 (stereo not drawn)	35.5 µM [falling, single point]	–
Cc1ccc(CNc2nc3ccccc3s2)s1	32.6 µM [falling, single point]	–
COc1cc([N+](=O)[O-])ccc1NC(=O)Nc1nc2c(s1)CCCC2	0.092 µM [rising, full curve, poor fit]	–
O=S(=O)(NCCOc1cccc2cccnc12)c1ccc(F)cc1	7.31 µM [rising, partial curve]	–
O=C(Nc1nc2cc3c(cc2s1)OCCO3)c1ccc([N+](=O)[O-])o1	2.82 µM [falling, full curve]	–
COc1ccc(-c2cn3c(C)c(C(=O)N4CCc5ccccc5C4)sc3n2)cc1	22.4 µM [falling, single point]	–
N#C/C(C(=O)c1ccccc1)=C1/SC=C(N)N1c1ccccc1	10 µM [falling, partial curve, poor fit]	–
CC(=O)N1CCN(C(=O)c2cccc(S(=O)(=O)Nc3ccc(C)cc3)c2)CC1	10.3 µM [falling, single point]	6.51 µM [falling, partial curve, poor fit]
Cc1ccc(S(=O)(=O)c2nc(S(C)(=O)=O)sc2N2CCC(O)CC2)cc1	35.5 µM [rising, partial curve, poor fit]	–

Record cards, from the list above. Values in the order: AC50 [1]	AC50 [2]
C=C(C)Cn1c(SCC(=O)NCc2ccco2)nc2sc3c(c2c1=O)CCC3 as listed: 12.6 µM [falling, single point]	–
O=C(Cc1ccc(Cl)cc1)Nc1cccc(C(=O)Nc2ccccc2C(=O)O)c1 as listed: 22.4 µM [falling, single point]	–
